{"sequences": {"note": "Sequences of proteins named here, by UniProt entry; tags and fusion partners are left off.", "UniProt P53350, whole entry, looked up": "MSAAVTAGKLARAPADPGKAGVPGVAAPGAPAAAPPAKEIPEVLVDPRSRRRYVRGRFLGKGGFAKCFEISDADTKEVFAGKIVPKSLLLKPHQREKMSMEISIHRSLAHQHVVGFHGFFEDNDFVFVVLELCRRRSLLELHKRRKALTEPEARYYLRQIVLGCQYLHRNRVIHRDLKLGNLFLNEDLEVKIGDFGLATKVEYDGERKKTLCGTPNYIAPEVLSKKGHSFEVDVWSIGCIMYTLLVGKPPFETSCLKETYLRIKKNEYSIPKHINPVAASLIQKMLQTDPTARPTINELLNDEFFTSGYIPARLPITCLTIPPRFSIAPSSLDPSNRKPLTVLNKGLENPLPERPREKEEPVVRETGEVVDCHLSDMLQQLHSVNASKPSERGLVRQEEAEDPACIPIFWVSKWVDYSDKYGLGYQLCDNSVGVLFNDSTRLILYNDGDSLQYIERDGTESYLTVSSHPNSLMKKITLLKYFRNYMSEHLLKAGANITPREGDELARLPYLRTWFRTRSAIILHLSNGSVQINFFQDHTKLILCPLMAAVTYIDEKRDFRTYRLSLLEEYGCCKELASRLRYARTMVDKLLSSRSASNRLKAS"}, "source": "PubChem BioAssay AID720504", "about": "(National Center for Advancing Translational Sciences (NCATS), 2013)", "note": "Where “and” joins values, the source holds several entries; their conditions need not be identical. Equal entries are not always repeated. In all, about 360,000 compounds went through this assay and about 10,000 (2.8%) were called active. The inconclusive results got no clear call from the source; some entries with a clear call stand among them for comparison. Calls come from the whole dose curve; as a rule, active = well fitted inhibition curve with a large enough effect; inconclusive = small, poorly fitted or top-dose-only effect; inactive = flat fitted curve, though single readings scatter. Potencies beside an inconclusive call are fits to weak or partial responses and may not hold up. % is set by controls: 0 for no effect and ±100 for the full control effect; potency is the fitted concentration of half-maximal effect.", "data": [{"target": "Serine/threonine-protein kinase PLK1 (Homo sapiens) (UniProt P53350)", "test": "qHTS for Inhibitors of PLK1-PDB (polo-like kinase 1 - polo-box domain): Primary Screen; note: nearly all actives have a fitted effect of over 65% in size; for max response, negative = inhibition: series mostly up to about 57 µM", "details": "Plk1 PBD binding of FITC phosphopeptide, fluorescence polarization", "values": [{"smiles": "O=C(NCC1CCCCC1)c1cc2ccccc2cc1O", "max response, negative = inhibition": "inactive: -14.5%"}, {"smiles": "C=CCn1c(C#N)c(N)sc1=N", "Potency": "inconclusive: 26.7 µM [inhibitor, single point]"}, {"smiles": "Cc1cc(C)c(NC(=O)CN(C)S(=O)(=O)c2ccc3c(c2)n(C)c(=O)c(=O)n3C)c(C)c1", "Potency": "inconclusive: 23.8 µM [inhibitor, single point]"}, {"smiles": "COCC(=O)n1nc(NCc2ccc(OC)cc2)nc1NCc1ccc(OC)cc1", "Potency": "active: 11.9 µM"}, {"smiles": "O=[N+]([O-])c1ccccc1S(=O)(=O)N1CCN(Cc2cc3c(cc2O)OCO3)CC1", "Potency": "inconclusive: 37.7 µM [inhibitor, partial curve, poor fit]"}, {"smiles": "O=C1Nc2ccc(F)cc2C12Nc1ccccc1-c1nnc(SCc3ccccc3Cl)nc1O2", "note": "(stereo not given)", "Potency": "inconclusive: 21.2 µM [inhibitor, partial curve]"}, {"smiles": "NC(=O)c1sc2nnc(-c3ccccc3)c(-c3ccccc3)c2c1N", "Potency": "inconclusive: 33.6 µM [inhibitor, partial curve]"}, {"smiles": "COCCN=c1scc(-c2cccs2)n1/N=C/c1ccc(O)c(O)c1O", "Potency": "active: 7.52 µM"}, {"smiles": "CC(C)(C)NC(=O)CN(Cc1ccc2c(c1)OCO2)C(=O)CNS(=O)(=O)c1ccccc1", "Potency": "inconclusive: 26.7 µM [inhibitor, single point]"}, {"smiles": "CC(C)N1CCN(c2ccncc2S(=O)(=O)N2CCOCC2)CC1", "Potency": "inconclusive: 26.7 µM [inhibitor, single point]"}, {"smiles": "Cc1cc(NC(=O)CSc2cn(CCNC(=O)c3ccc(F)cc3)c3ccccc23)no1", "Potency": "inconclusive: 23.8 µM [inhibitor, partial curve]"}, {"smiles": "COCCNC(=O)c1cc2cc(Cl)cc(Cl)c2oc1=O", "Potency": "inconclusive: 26.7 µM [inhibitor, partial curve]"}, {"smiles": "O=C(Nc1cccc(F)c1)C1CC(=O)N(c2ccc(Br)cc2)C1", "note": "(stereo not given)", "Potency": "active: 29.9 µM"}, {"smiles": "CCC(C)NC(=S)N1CCN(C)CC1", "note": "(stereo not given)", "max response, negative = inhibition": "inactive: -5.04%"}, {"smiles": "COc1ccc(/C=C/c2nc3ccccc3n2Cc2ccc(OC)c(OC)c2)cc1", "Potency": "inconclusive: 8.44 µM [inhibitor, partial curve]"}, {"smiles": "CC1=C(C(=O)O)N2C(=O)C(NC(=O)c3nn(C)c(C)c3Cl)C2SC1", "note": "(stereo not given)", "Potency": "inconclusive: 23.8 µM [inhibitor, single point]"}, {"smiles": "NC(=O)c1c(N)sc2c1CCC2", "Potency": "inconclusive: 33.6 µM [inhibitor, partial curve]"}, {"smiles": "O=C(NC1CCCC1)C(c1cccnc1)N(C(=O)c1csnn1)c1ccccc1Cl", "note": "(stereo not given)", "Potency": "inconclusive: 23.8 µM [inhibitor, partial curve]"}, {"smiles": "O=C(O)CCCn1cc(NC(=O)c2ccc(Br)o2)cn1", "Potency": "inconclusive: 18.9 µM [inhibitor, partial curve]"}, {"smiles": "S=C(NCCCN1CCOCC1)NCCCN1CCOCC1", "Potency": "active: 5.32 µM"}, {"smiles": "COc1ccc(C2C(C#N)=C3NC(=O)c4c(sc5c4CCCCC5)N3C3=C2C(=O)CC(C)(C)C3)cc1", "note": "(stereo not given)", "Potency": "inconclusive: 15 µM [inhibitor, partial curve]"}, {"smiles": "Cc1cccc(N2C(S)=C(C#N)C(=O)NC2c2ccco2)c1", "note": "(stereo not given)", "Potency": "inconclusive: 37.7 µM [inhibitor, single point]"}, {"smiles": "N#Cc1ccccc1OCC(=O)NC1CCCCCC1", "max response, negative = inhibition": "inactive: -1.82%"}, {"smiles": "Cc1ccccc1-n1c(Cn2c(=O)sc3ccccc32)nnc1SCC(=O)NCC1CCCO1", "note": "(stereo not given)", "Potency": "active: 21.2 µM"}, {"smiles": "O=C(c1ccco1)[C@@H]1[C@@H]2C(=O)N(c3ccccc3)C(=O)[C@@H]2C2c3ccccc3C=CN21", "note": "(stereo not given in full)", "Potency": "inconclusive: 26.7 µM [inhibitor, partial curve]"}, {"smiles": "CCc1nc2ccc(C(=O)Nc3ccc(OC)c(OC)c3)cn2c1N(CC)CCOC", "max response, negative = inhibition": "inactive: -14.6%"}, {"smiles": "CCc1ccc(N2CC(C)Cn3c2nc2c3c(=O)[nH]c(=O)n2C)cc1", "note": "(stereo not given)", "Potency": "inconclusive: 33.6 µM [inhibitor, single point]"}, {"smiles": "CCOC(=O)CNC(=O)Cn1cnc2sc(C)c(S(=O)(=O)N3CCOCC3)c2c1=O", "Potency": "inconclusive: 37.7 µM [inhibitor, single point]"}, {"smiles": "Cc1cccc2c1CC(C)(C)N/C2=C\\C(N)=O", "Potency": "inconclusive: 21.2 µM [inhibitor, partial curve]"}, {"smiles": "Cc1cc(C)c2c(=O)n(CC(=O)Nc3ccc(Br)c(C)c3)sc2n1", "Potency": "active: 2.99 µM"}, {"smiles": "Cc1cc(C(C2C(=O)CC(C)(C)CC2=O)C2C(=O)CC(C)(C)CC2=O)cc(C)c1OC(F)F", "Potency": "active: 5.32 µM"}, {"smiles": "CC(=O)Nc1ccc(N=Nc2c(C)[nH]n(C(N)=S)c2=O)cc1", "Potency": "inconclusive: 8.44 µM [inhibitor, single point]"}, {"smiles": "CC(=O)Nc1ccc(NC(=O)c2ccc3c(c2)C(=O)N(c2ccccc2C)C3=O)cc1", "Potency": "inconclusive: 23.8 µM [inhibitor, partial curve]"}, {"smiles": "CC1(C)Cc2nc3sc(C(N)=O)c(N)c3cc2CO1", "Potency": "inconclusive: 18.9 µM [inhibitor, partial curve]"}, {"smiles": "Cc1ccc(N2CC(C(=O)Nc3cc(S(=O)(=O)N4CCCCC4)ccc3C)CC2=O)cc1", "note": "(stereo not given)", "max response, negative = inhibition": "inactive: -12.8%"}, {"smiles": "CCCn1nnnc1SCC(=O)N(C(C)C)C(C)C", "max response, negative = inhibition": "inconclusive: -30% [inhibitor]"}, {"smiles": "CCN1CCN(Cc2ccc(NC(=O)c3cc(NC(=O)C(=O)c4c[nH]c5ccccc45)cc(OC)c3)cc2C(F)(F)F)CC1", "max response, negative = inhibition": "inactive: -6.3% and inactive: -8.43%"}, {"smiles": "Cc1cc(C(=O)O)ccc1N=Cc1c(O)ccc2ccccc12", "Potency": "inconclusive: 26.7 µM [inhibitor, single point]"}, {"smiles": "COc1ccc(NC2=C(c3ccc(OC)cc3)C(=O)c3ccccc32)cc1", "max response, negative = inhibition": "inactive: 0.621%"}, {"smiles": "CCOc1ccc(NC(=S)NNC(=O)c2ccc(Br)cc2)cc1", "Potency": "inconclusive: 11.9 µM [inhibitor, partial curve]"}, {"smiles": "CN1C(=O)/C(=C/c2cc(N=Nc3ccccc3)ccc2O)SC1=S", "Potency": "inconclusive: 29.9 µM [inhibitor, single point]"}, {"smiles": "CCn1c(CNC(=O)COc2ccc(C(C)C)cc2)nnc1SCC(=O)Nc1ccc(F)cc1", "max response, negative = inhibition": "inactive: 2.48%"}, {"smiles": "C/C(=N/NC(=O)CNC(=O)c1ccccn1)c1ccccc1", "Potency": "inconclusive: 23.8 µM [inhibitor, partial curve]"}, {"smiles": "O=C(O)c1ccc(-n2ccnc2)c([N+](=O)[O-])c1", "Potency": "inconclusive: 26.7 µM [inhibitor, single point]"}, {"smiles": "Cc1nc(NC(=O)CSc2nc3cccnc3n2C2CCCCC2)sc1C", "Potency": "inconclusive: 37.7 µM [inhibitor, single point]"}, {"smiles": "CCOc1ccc(N=C2NN=C(c3cc(C)n(CC4CCCO4)c3C)CS2)cc1", "note": "(stereo not given)", "max response, negative = inhibition": "inactive: -23.4%"}, {"smiles": "C=C(C)Cn1c2ccc(NC(=O)NCCc3ccccc3)cc2c(=O)n1C", "Potency": "inconclusive: 23.8 µM [inhibitor, partial curve]"}, {"smiles": "CCC(=O)Nc1ccc(Cl)c(NC(=O)c2ccc([N+](=O)[O-])cc2)c1", "Potency": "active: 8.44 µM"}, {"smiles": "O=C(COC(=O)c1ccc[nH]c1=O)Nc1cc(S(=O)(=O)N2CCCCC2)ccc1Cl", "Potency": "inconclusive: 37.7 µM [inhibitor, single point]"}, {"smiles": "FC(F)(F)c1cnc(-c2cnc(-c3cccnc3)nc2)c(Cl)c1", "Potency": "active: 23.8 µM"}, {"smiles": "CC(C)n1c(SCC(N)=O)nc2c1c(=O)[nH]c(=O)n2C", "max response, negative = inhibition": "inactive: -13.7%"}, {"smiles": "CC(C)Sc1nc(N2CCOCC2)c2c(c1C#N)CC(C)(C)N(C)C2", "Potency": "active: 2.67 µM"}, {"smiles": "O=S(=O)(Cc1ccccc1Cl)N1CCCC1", "Potency": "inconclusive: 16.8 µM [inhibitor, partial curve]"}, {"smiles": "Cc1ccc(/C=N/n2c(COc3ccccc3)n[nH]c2=S)s1", "Potency": "inconclusive: 23.8 µM [inhibitor, partial curve]"}, {"smiles": "S=C(c1ccc(-c2ccccc2)cc1)N1CCOCC1", "Potency": "inconclusive: 21.2 µM [inhibitor, partial curve]"}, {"smiles": "N=c1sccn1CC(=O)Nc1ccc(SC(F)F)cc1", "Potency": "active: 23.8 µM"}, {"smiles": "O=C(CSc1cn[nH]n1)Nc1ccc(O)c(C(=O)O)c1", "Potency": "inconclusive: 21.2 µM [inhibitor, partial curve]"}, {"smiles": "COc1ccc(-n2cc(CN(C)C3CCOCC3)c(-c3cccc(F)c3)n2)cc1", "Potency": "active: 23.8 µM"}, {"smiles": "O=C1O[C@@H](c2ccccc2)C[C@@H](O)[C@H](O)CCCc2ccccc21", "max response, negative = inhibition": "inactive: -3.38%"}, {"smiles": "CCOC(=O)C1=C(c2cccc(F)c2)NC(=S)NC1C", "note": "(stereo not given)", "Potency": "inconclusive: 15 µM [inhibitor, partial curve]"}, {"smiles": "Cc1ccc(S(=O)(=O)NCc2ccncc2)cc1C(=O)NCC(C)C", "Potency": "inconclusive: 23.8 µM [inhibitor, single point]"}, {"smiles": "COc1ccc([C@H]2CC(=O)C=C(c3ccc(Cl)c(C(F)(F)F)c3)C2)cc1", "max response, negative = inhibition": "inactive: -6.25%"}, {"smiles": "C/C(=N\\NC(=O)CSCc1ccc([N+](=O)[O-])cc1)c1ccccc1", "max response, negative = inhibition": "inactive: -2.52%"}, {"smiles": "Nc1nc2ccccc2n1CCOc1ccc(Cl)cc1", "max response, negative = inhibition": "inactive: -19.9%"}, {"smiles": "CCOC(=O)c1c(C)[nH]c(C2=NNC(=Nc3ccccc3)SC2)c1C", "Potency": "inconclusive: 29.9 µM [inhibitor, partial curve]"}, {"smiles": "CC1(C)C2CCC13CS(=O)(=O)N[C@@H]3C2", "note": "(stereo not given in full)", "Potency": "inconclusive: 26.7 µM [inhibitor, single point]"}, {"smiles": "COCCN(C(=O)COC(=O)/C=C/c1cccc(C(F)(F)F)c1)c1c(N)n(CC(C)C)c(=O)[nH]c1=O", "max response, negative = inhibition": "inactive: 4.69%"}, {"smiles": "NC(=S)N/N=C1\\CC(n2nnnc2-c2ccccc2)C2COC1O2", "note": "(stereo not given)", "Potency": "inconclusive: 23.8 µM [inhibitor, partial curve]"}, {"smiles": "COC(CNC(=O)c1ccc2c(c1)nc(C)n2-c1cccc(C)c1)OC", "Potency": "active: 29.9 µM"}, {"smiles": "N#CCc1nc2c3c4c(sc3ncn2n1)CCCC4", "Potency": "inconclusive: 26.7 µM [inhibitor, single point]"}]}]}
